In PMC6853996, “Assaying Homodimers of NF-κB in Live Single Cells” (Frontiers in Immunology, 2019):
These are yes or no findings as the source states them, for the method shown. In cells and extracts the contact can be indirect. Some binding calls cover weakened binding; strength is not graded here.

By UniProt entry, the sequences of proteins in these tests, tags left out.
UniProt Q04207: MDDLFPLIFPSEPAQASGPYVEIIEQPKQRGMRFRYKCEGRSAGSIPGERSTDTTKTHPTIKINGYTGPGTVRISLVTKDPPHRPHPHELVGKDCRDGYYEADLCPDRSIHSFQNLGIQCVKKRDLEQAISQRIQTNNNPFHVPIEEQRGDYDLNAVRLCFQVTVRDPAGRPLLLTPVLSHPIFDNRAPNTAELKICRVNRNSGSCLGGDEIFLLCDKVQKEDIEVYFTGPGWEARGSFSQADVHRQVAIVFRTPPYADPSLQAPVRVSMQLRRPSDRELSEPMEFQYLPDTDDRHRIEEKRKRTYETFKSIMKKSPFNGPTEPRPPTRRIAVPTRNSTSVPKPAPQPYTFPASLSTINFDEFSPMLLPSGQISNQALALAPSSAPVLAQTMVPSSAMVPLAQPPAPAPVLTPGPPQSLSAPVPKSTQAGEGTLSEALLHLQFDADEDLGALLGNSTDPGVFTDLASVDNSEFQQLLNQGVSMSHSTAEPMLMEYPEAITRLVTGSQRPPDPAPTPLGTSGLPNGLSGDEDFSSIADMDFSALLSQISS

Target: RelA immunoprecipitated with anti-RelA antibody from whole-cell extracts (UniProt Q04207)
Assay: co-IP; whole-cell extracts (1% NP-40, 50 mM Tris-HCl pH 7.5, 150 mM NaCl); anti-RelA on protein A Dynabeads, overnight 4°C; immunoblot; LPS-treated cells with or without WFA or TSA pre-incubation

binding: binds
Substance: p105 (NF-κB1 precursor) (from UniProt P25799-1 1-971)
